Data set [1] has as its target T1, HEL (hDicer helicase domain) (Homo sapiens) (UniProt Q9UPY3).
T1 sequence (looked up): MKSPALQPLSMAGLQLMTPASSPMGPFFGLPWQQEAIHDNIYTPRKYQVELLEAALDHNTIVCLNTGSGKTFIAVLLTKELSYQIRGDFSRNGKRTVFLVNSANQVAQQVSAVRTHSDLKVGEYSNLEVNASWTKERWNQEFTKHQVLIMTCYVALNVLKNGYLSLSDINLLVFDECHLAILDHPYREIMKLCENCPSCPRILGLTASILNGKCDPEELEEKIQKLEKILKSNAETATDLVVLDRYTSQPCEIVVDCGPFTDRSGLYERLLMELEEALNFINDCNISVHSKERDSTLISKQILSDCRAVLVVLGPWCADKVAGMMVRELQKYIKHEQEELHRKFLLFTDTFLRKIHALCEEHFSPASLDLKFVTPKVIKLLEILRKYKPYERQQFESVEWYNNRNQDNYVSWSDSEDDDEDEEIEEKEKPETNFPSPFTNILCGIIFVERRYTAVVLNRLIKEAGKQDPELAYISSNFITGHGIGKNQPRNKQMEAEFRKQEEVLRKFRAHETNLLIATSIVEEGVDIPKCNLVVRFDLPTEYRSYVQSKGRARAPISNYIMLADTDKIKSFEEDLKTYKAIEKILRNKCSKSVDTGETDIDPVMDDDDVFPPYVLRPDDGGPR
As to the kind of experiment: EMSA. Conditions: 50 mM Tris-HCl pH 7.5, 150 mM NaCl, EMSA 15 min at room temperature (also 4 and 37 C), recombinant protein, residues 1-624, protein details: N-terminal His6 (pMCSG7). (In general: In EMSA bound probe runs differently from free probe, usually more slowly.)

The target of data set [2] is T1, HEL (hDicer helicase domain) (Homo sapiens). As to the kind of experiment: BLI. As to conditions: signal too low for Kd, recombinant protein, residues 1-624, protein details: N-terminal His6 (pMCSG7), label: 5' 32P (EMSA), none (BLI).
The mark [3] stands for this setting: smeared bands, no Kd, 5% native PAA gel in 1x TBE at 4 C, label: 5' 32P (EMSA).
[4] abbreviates: 4 C, 5% native PAA gel in 1x TBE at 4 C, label: 5' 32P (EMSA), none (BLI).
Where [5] appears, read: poorly detected, 5% native PAA gel in 1x TBE at 4 C, label: 5' 32P (EMSA), none (BLI).
The mark [6] stands for this setting: distinct but low abundant complex, 5% native PAA gel in 1x TBE at 4 C, label: 5' 32P (EMSA), none (BLI).

A weaker result is weaker than the reference pair of the same experiment. Protein sequences can lack the tags named with them. For at least one entry, the source does not settle the construct or the ends of the probe. For some of these results: At least one verdict rests on a figure or table, not on a statement of the authors.

Regarding “AGCUUAUCAGACUGAUGUUGACUGUUGAAUCUCAUGGCAACACCAGUCGAUGGGCUGU [pre-mir-21]”, the binding result in data set [1] (setting [3]) was “binds more weakly”.
Take “GGGAGAAUCAUAAGUAGCCUCCCCCCAUGUUAACAGUUAGCC [R42]”: the binding result in data set [1] (1 mM ADP, not improved, 5% native PAA gel in 1x TBE at 4 C, label: 5' 32P (EMSA), none (BLI)) is reported as “binds more weakly”; in data set [1] (1 mM AMP-PNP, not improved, 5% native PAA gel in 1x TBE at 4 C, label: 5' 32P (EMSA), none (BLI)), “binds more weakly”; in data set [1] (1 mM ATP, not improved, 5% native PAA gel in 1x TBE at 4 C, label: 5' 32P (EMSA), none (BLI)), “binds more weakly”; in data set [1] (setting [4]) it was “binds more weakly”; in data set [1] (setting [5]), “binds more weakly”.
As for “GGGAGAAUCAUAAGUAGCGCAGUGAGUCGUUGUGCUGCCCAUGUUAACAGUUAGCC [R56]”, the binding result in data set [1] (setting [4]) and in data set [1] (setting [5]) was “binds more weakly” throughout.
GTGCATTGTAGTTGCATTGCATGTTCTGGTCA [D32]: the binding result was “binds” in data set [1] (1 mM ATP, ATP did not support binding, 5% native PAA gel in 1x TBE at …, label: 5' 32P (EMSA), none (BLI), single-stranded DNA) and “binds more weakly” in data set [2] (single-stranded DNA).
For the sequence GUGCAUUGUAGUUGCAUUGCAUGUUCUGGUCA [R32], the binding result in data set [1] (1 mM ATP, ATP did not support binding, 5% native PAA gel in 1x TBE at …, label: 5' 32P (EMSA), none (BLI)) was “binds more weakly”; in data set [1] (setting [6]), “binds more weakly”; in data set [2] it was “binds more weakly”.
As for “GUGCAUUGUAGUUGCAUUGCAUGUUCUGGUGGUACCCAUGCAAUGUUUCCACAGUGCAUC [pre-mir-33a]”, the binding result in data set [1] (smeared bands, no Kd, 5% native PAA gel in 1x TBE at 4 C, label: 5' 32P) is recorded as “binds more weakly”.
With TCGAAGTATTCCGCGTACGTG [D21], the binding result in data set [1] (5% native PAA gel in 1x TBE at 4 C, label: 5' 32P (EMSA), none (BLI), single-stranded DNA) was “binds more weakly”; in data set [2] (single-stranded DNA), “binds more weakly”.
Regarding “UAGCAGCACGUAAAUAUUGGCGUUAAGAUUCUAAAAUUAUCUCCAGUAUUAACUGUGCUGCUGAA [pre-mir-16-1]”, in data set [1] (setting [3]), the binding result is “binds more weakly”.
With UCGAAGUAUUCCGCGUACGUG [R21], the binding result in data set [1] (setting [6]) and in data set [2] was “binds more weakly” throughout.
